# Measurements: patent US20020168712A1
# No constants are given. Whether binding was seen depends on the method and setting. Some binding calls cover weakened binding; strength is not graded here. Tags and fused reporters may be left off the sequences shown.
# T1: full length membrane-bound human LDCAM on transfected CV1/EBNA cells (human) (UniProt Q9BY67)
# T1 sequence: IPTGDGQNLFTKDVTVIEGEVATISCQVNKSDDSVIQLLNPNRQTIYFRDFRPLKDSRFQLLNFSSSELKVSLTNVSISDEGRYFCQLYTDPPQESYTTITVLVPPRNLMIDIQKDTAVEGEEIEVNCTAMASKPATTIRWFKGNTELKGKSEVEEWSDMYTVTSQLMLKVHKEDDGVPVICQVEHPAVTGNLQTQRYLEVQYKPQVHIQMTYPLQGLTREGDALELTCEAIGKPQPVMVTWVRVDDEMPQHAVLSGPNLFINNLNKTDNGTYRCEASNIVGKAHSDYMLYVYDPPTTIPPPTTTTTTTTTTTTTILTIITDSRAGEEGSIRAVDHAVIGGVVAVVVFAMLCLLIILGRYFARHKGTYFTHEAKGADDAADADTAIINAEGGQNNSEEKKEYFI
# Molecular target: T1, full length membrane-bound human LDCAM on transfected CV1/EBNA cells (human)
# Assay: cell binding and FACS with LDCAM/Fc fusion protein
binder,measurement,value
"human LDCAM/Fc fusion protein (Fc fusion, not shown: a dimerising Fc or GST, Forms a disulfide-linked dimer through the Fc.) IPTGDGQNLFTKDVTVIEGEVATISCQVNKSDDSVIQLLNPNRQTIYFRDFRPLKDSRFQLLNFSSSELKVSLTNVSISDEGRYFCQLYTDPPQESYTTITVLVPPRNLMIDIQKDTAVEGEEIEVNCTAMASKPATTIRWFKGNTELKGKSEVEEWSDMYTVTSQLMLKVHKEDDGVPVICQVEHPAVTGNLQTQRYLEVQYKPQVHIQMTYPLQGLTREGDALELTCEAIGKPQPVMVTWVRVDDEMPQHAVLSGPNLFINNLNKTDNGTYRCEASNIVGKAHSDYMLYVYDPPTTIPPPTTTTTTTTTTTTTILTIITDSRAGEEGSIRAVDH",binding,binds
